# PubChem BioAssay AID488965 (Broad Institute, 2010)
# The whole screen tested about 340,000 compounds, of which about 210 (0.062%) were called active. The inconclusive results got no clear call from the source; some entries with a clear call stand among them for comparison. No stated cut-off is given here; in the data, active means inhibition above about 30% (passing the limit was not always enough); inconclusive means no clear call, values can overlap the other calls.
# System: PvdQ acylase [Pseudomonas aeruginosa LESB58]
# Assay: P. aeruginosa PvdQ acylase inhibitors, primary screen, biochemical, fluorescence, plate reader and imaging, single point (AID 488965);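 further: 0% = vehicle neutral wells and 100% = reference inhibitor wells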
# Settings: purified PvdQ acylase, at 10 µM, hits give high values
row,SMILES,inhibition
1,Cc1ccc(N(c2ncnc(N)c2[N+](=O)[O-])C2CCCCC2)cc1,inconclusive: 30.5%
2,O=C(NC1CCS(=O)(=O)C1)c1cccc(Br)c1 (stereo unspecified),active: 41.2%
3,c1ccc2nc3c(ccc4ccccc43)cc2c1,inactive: 0.0635%
4,N#Cc1cc([N+](=O)[O-])ccc1Oc1cccc(/C=N/NC(=O)c2ccc(Cl)cc2)c1,active: 65.3%
5,Cc1ccc2[nH]c(=O)c(CC=C(Cl)Cl)c(C)c2c1,inconclusive: 34.4%
6,CNC(=S)N/N=C/c1cc(C)n(-c2ccc(Cl)c(Cl)c2)c1C,inconclusive: 34.7%
7,O=C(COC(=O)/C=C/c1cccc(Br)c1)NC1CCCCCC1,active: 42.1%
8,Cc1nc(N2CCNCC2)c2c3c(sc2n1)CCCC3,inconclusive: 32.3%
9,O=C(CCc1nc2ccccc2c(=O)[nH]1)NCCN1C(=O)S/C(=C\c2ccc(OC(F)F)cc2)C1=O,inactive: -2.67%
10,CSC1=N/C(=C\C=C\c2cccs2)C(=O)S1,active: 93.4%
11,O=C(CN1C(=O)C2C3C=CC(C4CC34)C2C1=O)Oc1ccccc1 (stereo unspecified),active: 33.6%
12,CCCc1nnc(NC(=O)Cn2cnc3ccccc3c2=O)s1,inconclusive: 36.9%
13,COc1ccc2cc(C)c3nnc(SCC(=O)Nc4cc(OC)c(OC)cc4C(=O)O)n3c2c1,inconclusive: 34.6%
14,COC(=O)c1cc(S(=O)(=O)Nc2cccc(S(N)(=O)=O)c2)oc1C,inconclusive: 31.1%
15,COc1cc2nc(CN3CCN(S(=O)(=O)c4c(F)cccc4F)CC3)[nH]c(=O)c2cc1OC,inconclusive: 31.7%
16,O=c1oc(-c2ccc(F)cc2)nc2ccsc12,active: 70.2%
17,Cc1ccc(Nc2nc(-c3sc(C)nc3C)cs2)cc1,inconclusive: 32%
18,CCC(=O)c1ccc(OC(=O)c2cccs2)cc1,active: 41.4%
19,COC(=O)c1sccc1N/N=C/c1ccc(OC)c(OC)c1OC,inconclusive: 32.3%
20,COc1ccc(OCCCC(=O)Nc2cccc(SC)c2)cc1,inconclusive: 33.2%
21,COc1ccc(OCCSc2nc3ccccc3n2CCC(=O)O)cc1,inconclusive: 36.4%
22,COC(=O)c1noc(-c2ccc(OC)cc2)n1,active: 70.9%
23,Cc1cc(Cl)c(S(=O)(=O)Nc2ccc3c(c2)OCO3)cc1OCC(N)=O,inactive: -11.2%
24,CCCC(=O)n1nc(-c2ccc(Cl)cc2)nc1SC,inactive: -5.9%

# Pulled by structure from the list above:
row,SMILES,inhibition
7,O=C(COC(=O)/C=C/c1cccc(Br)c1)NC1CCCCCC1,active: 42.1%
22,COC(=O)c1noc(-c2ccc(OC)cc2)n1,active: 70.9%
10,CSC1=N/C(=C\C=C\c2cccs2)C(=O)S1,active: 93.4%

# Following part:

row,SMILES,inhibition
1,N#C/C(=C/c1ccco1)c1nc2ccccc2s1,active: 41.5%
2,COC(=O)C1CCCCN1C(=O)c1cc(COc2cccc3cnccc23)on1 (stereo unspecified),inactive: 11.8%
3,CCOC(=O)C1CCCN(C(=O)c2cc(S(=O)(=O)N(C)C)ccc2N2CCCC2)C1 (stereo unspecified),inconclusive: 30.9%
4,CN(C)C(=O)Nc1ccccc1,inconclusive: 30.6%
5,CC(=O)N/N=C/c1c(C)[nH]n(-c2ccccc2)c1=O,inconclusive: 32.5%
6,CC(C)N=C(NC#N)SCc1ccccc1F,inconclusive: 30.9%
7,Nc1nc(-c2ccc(Cl)cc2)nnc1-c1ccc(Br)cc1,inactive: -4.41%
8,Cc1cccc(C(C#N)c2ccc(Cl)nn2)c1 (stereo unspecified),active: 88.8%
9,Cc1ccccc1NC(=O)Cn1nc(-c2ccccc2)nc1-c1ccccc1,inconclusive: 30.1%
10,O=C1CCC(=O)N1CCSC(=S)N1CCSCC1,inconclusive: 38.3%
11,Cc1cc(/C=C2\Cc3ccccc3C2=O)c(C)n1-c1ccccc1,inconclusive: 30.6%
12,CCOc1ccccc1C(=O)Nc1ccc(S(=O)(=O)N2CCN(C)CC2)cc1,inactive: -8.08%
13,Cc1c(Br)c(O)c(Br)c(O)c1/C=N/n1c(-c2ccccc2)n[nH]c1=S,inconclusive: 30.8%
14,CN=C1S/C(=C\c2ccc(SC)cc2)C(=O)N1C,active: 48.2%
15,COc1ccc(N2CCN(C(=O)c3ccc(Br)o3)CC2)cc1,active: 42.5%
16,C=CCNC(=O)c1ccccc1NC(=O)Nc1ccccc1,inconclusive: 30.3%
17,Cc1ccc(NC(=O)CN(C)C(=O)COc2cccc3ccc(C)nc23)cc1,inactive: -13.7%
18,O=C(CO/N=C/c1c(Cl)cccc1Cl)NNC(=O)c1ccc(Cl)cc1,inactive: 2.37%
19,COCC(=O)N1CCC(Oc2ccc(C(=O)NCCc3ccncc3)cc2)CC1,inconclusive: 31.9%
20,Cc1ccc(S(=O)(=O)NCCC(C)C)cc1[N+](=O)[O-],active: 53.2%
21,CO/N=C/c1ccc(Sc2ccccc2)c([N+](=O)[O-])c1,inconclusive: 30.7%
22,CSC1=NC(=O)/C(=C/c2ccc(SC)cc2)S1,inconclusive: 51%
23,Cc1ccc(O)c(C(=O)/C=C/c2ccc3c(c2)OCCO3)c1,active: 64.3%
24,COc1cccc(C(=O)NCC(=O)N/N=C/c2cccc(OC(=O)c3ccc([N+](=O)[O-])cc3)c2)c1,inactive: -6.45%

row,SMILES,inhibition
1,CCOC(=O)N1CCN(c2nc3ccccn3c(=O)c2C=O)CC1,active: 31.2%
2,O=C(/C=C/c1cccs1)c1cc(Cl)ccc1O,active: 77.3%
3,O=C(O)COc1cccc(/C=C2/SC(=S)N(Cc3ccccc3)C2=O)c1,inconclusive: 34.9%
4,O=S1OC(c2ccccc2)c2cc(Cl)ccc21 (stereo unspecified),inconclusive: 30.5%
5,Cc1ncc(CN2CCN(Cc3ccc(F)cc3)C(CCO)C2)s1 (stereo unspecified),active: 39.1%
6,O=C(O)c1cc2nccc(-c3ccco3)n2n1,active: 39.1%
7,O=c1c2[nH]c3ccccc3c2ncn1CCCn1ccnc1,inactive: -9.24%
8,NS(=O)(=O)c1ccc(CNC(=S)NCc2ccc(Cl)cc2)cc1,inactive: 12.8%
9,O=[N+]([O-])c1ccc(NN=Cc2cccc(O)c2)nc1,inactive: -3.22%
10,CCCCNc1c(C(=O)OCC)c(=O)[nH]c2ccccc12,inconclusive: 31.9%
11,Cc1ccc(NC(=O)CSc2nnc(-c3cnccn3)n2C)cc1C,inactive: -7.68%
12,Oc1ccc(F)cc1-c1cc(-c2ccc3c(c2)OCCO3)n[nH]1,inconclusive: 33.7%
13,COC(=O)CNC(c1ccccc1)c1cc(C)ccc1NS(=O)(=O)c1ccc(C)cc1 (stereo unspecified),inconclusive: 38.8%
14,Clc1cccc(Cl)c1CSc1nnc(-c2sccc2-n2cccc2)o1,inactive: 9.31%
15,Cc1cccc(Nc2nnc(SCC(=O)c3c(N)n(C4CC4)c(=O)[nH]c3=O)s2)c1,inconclusive: 31.7%
16,CCOC(=O)N1CCN(c2ccc(Cl)c(Cl)c2)CC1,inconclusive: 34.3%
17,Oc1oc(-c2ccccc2)nc1/C=N/c1ccccn1,inactive: 12.1%
18,CCOC(=O)c1ccc(N2Cc3ccccc3C2=NC(=O)c2ccncc2)cc1,inconclusive: 37.4%
19,COc1ccc(Cl)c(NCCC(=O)O)c1,inconclusive: 36.5%
20,COc1ccc(NS(=O)(=O)c2cc(NC(=O)c3ccco3)ccc2N2CCCCC2)cc1,inactive: 4.46%
21,CCOC(=O)CC(NC(=O)c1ccco1)c1ccccc1Cl (stereo unspecified),inconclusive: 34.6%
22,c1ccc(-c2cnc(C3CCCCC3)o2)cc1,inconclusive: 30.1%
23,Cc1ccccc1C(=O)NCc1nnc(SCC(=O)N2CCN(c3ccccc3)CC2)n1C,inactive: -11.9%
24,Cc1ccc(NC(=O)C[n+]2cc(-c3ccccc3)n3c2CCC3)c(C)c1,inactive: -11.7%

row,SMILES,inhibition
1,O=C(C=Cc1ccco1)c1cc(Cl)ccc1O,active: 44.7%
2,CCOC(=O)c1ccc(-c2ccc(CO)o2)cc1,inconclusive: 30.3%
3,O=C1/C(=C/c2cccc([N+](=O)[O-])c2)Oc2cc(O)ccc21,active: 41%
4,O=C1CC(c2ccccc2)Cc2nc(NC3CC3)ncc21 (stereo unspecified),inconclusive: 30.1%
5,O=C(OCc1ccc(Cl)c(Cl)c1)c1ccccn1,inconclusive: 32%
6,CN(C)CCCN(Cc1cc2cc3c(cc2[nH]c1=O)OCO3)C(=S)Nc1cccc(Cl)c1,inconclusive: 32.7%
7,CC(=O)c1c(C)[nH]c(C(=O)COC(=O)c2cccs2)c1C,inconclusive: 31%
8,CS(=O)(=O)Nc1cccc(C2=NN(S(C)(=O)=O)C(c3ccccc3)C2)c1 (stereo unspecified),inconclusive: 32.4%
9,O=C(/C=C/c1ccc(Cl)cc1)N1CCN(c2ccccc2[N+](=O)[O-])CC1,inconclusive: 32.8%
10,CC(NC(=O)CNC(=O)c1sc2ccccc2c1Cl)c1ccc(S(N)(=O)=O)cc1 (stereo unspecified),inactive: -11.9%
11,Cc1cc(C(=O)Nc2ccc(F)c(Cl)c2)on1,inconclusive: 32.7%
12,Clc1ccc2nc(-c3ccc4c(c3)OCO4)cn2c1,inconclusive: 42.4%
13,CC1CCC2(CC1)SCC(=O)N2c1ccc(F)cc1 (stereo unspecified),inactive: 0.0262%
14,Cc1ccc(S(=O)(=O)N2CCN(C(=O)CN(Cc3ccco3)Cc3cccs3)CC2)cc1,inactive: -2.44%
15,Cc1ccsc1C(=O)NCCC(c1ccccc1)c1ccccc1,inconclusive: 34.5%
16,CC1SCC(NC(=O)c2cccc(Cl)c2)CS1 (stereo unspecified),inconclusive: 30.8%
17,COc1ccc(C(=O)N/N=C/c2ccc(OC)c(CN3CCCc4ccccc43)c2)cc1,inconclusive: 34.4%
18,CCOc1ccc(NC(=O)NCc2cccn2C)cc1,inconclusive: 35.6%
19,O=C(Nc1nc2cc3c(cc2s1)OCO3)C1=COCCO1,inconclusive: 30.9%
20,CCOC(=O)c1ccc(NC(=O)c2ccco2)cc1,inconclusive: 33.4%
21,O=C1OC(c2ccccc2)c2ccccc21 (stereo unspecified),inconclusive: 32.9%
22,c1ccn2cc(-c3ccc4c(c3)OCCO4)nc2c1,inconclusive: 31.7%
23,O=C(OCc1nc2ccccc2s1)c1ccc([N+](=O)[O-])o1,inconclusive: 30.1%
24,CCN1CCCC1CN(Cc1cc2ccc(C)cc2[nH]c1=O)C(=S)Nc1cccc(OC)c1 (stereo unspecified),inconclusive: 33.5%

# Exported with bars between the fields: 2 of the compounds above
row | SMILES | inhibition
10 | CCCCNc1c(C(=O)OCC)c(=O)[nH]c2ccccc12 | inconclusive: 31.9%
9 | O=C(/C=C/c1ccc(Cl)cc1)N1CCN(c2ccccc2[N+](=O)[O-])CC1 | inconclusive: 32.8%
